Test results as given in US11331299B2, “Medicinal use of serrulatane diterpenes” (The University of Sydney, priority 2016, dated 2022).
Like-named read-outs stand apart in the source and are kept apart here. For part of these data: At least one structure is not confirmed: it was looked up by name or label, or the drawing left a doubt. Some entries share one result that the patent states for a list of compounds.

The chains behind the UniProt entries cited, without tags or fusion partners.
UniProt P25021, whole entry: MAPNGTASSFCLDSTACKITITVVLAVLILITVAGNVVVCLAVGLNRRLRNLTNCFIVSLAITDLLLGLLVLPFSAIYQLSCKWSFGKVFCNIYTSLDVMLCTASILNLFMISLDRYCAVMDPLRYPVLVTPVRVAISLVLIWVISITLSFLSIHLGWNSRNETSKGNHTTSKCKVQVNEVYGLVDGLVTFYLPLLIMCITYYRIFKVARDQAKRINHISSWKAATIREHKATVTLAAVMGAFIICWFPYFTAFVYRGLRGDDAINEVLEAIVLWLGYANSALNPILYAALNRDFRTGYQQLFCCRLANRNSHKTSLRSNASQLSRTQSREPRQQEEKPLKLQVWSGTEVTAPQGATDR
UniProt Q96LA8, whole entry: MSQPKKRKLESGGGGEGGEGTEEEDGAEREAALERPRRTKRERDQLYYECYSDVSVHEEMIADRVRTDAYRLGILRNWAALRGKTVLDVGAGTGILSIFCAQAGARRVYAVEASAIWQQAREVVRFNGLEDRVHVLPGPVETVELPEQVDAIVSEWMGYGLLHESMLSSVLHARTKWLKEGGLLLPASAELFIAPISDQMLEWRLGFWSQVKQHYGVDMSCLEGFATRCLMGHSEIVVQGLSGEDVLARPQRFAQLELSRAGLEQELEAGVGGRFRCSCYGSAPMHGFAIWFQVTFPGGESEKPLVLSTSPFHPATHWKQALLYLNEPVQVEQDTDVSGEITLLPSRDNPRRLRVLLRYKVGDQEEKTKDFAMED
UniProt P35367, whole entry: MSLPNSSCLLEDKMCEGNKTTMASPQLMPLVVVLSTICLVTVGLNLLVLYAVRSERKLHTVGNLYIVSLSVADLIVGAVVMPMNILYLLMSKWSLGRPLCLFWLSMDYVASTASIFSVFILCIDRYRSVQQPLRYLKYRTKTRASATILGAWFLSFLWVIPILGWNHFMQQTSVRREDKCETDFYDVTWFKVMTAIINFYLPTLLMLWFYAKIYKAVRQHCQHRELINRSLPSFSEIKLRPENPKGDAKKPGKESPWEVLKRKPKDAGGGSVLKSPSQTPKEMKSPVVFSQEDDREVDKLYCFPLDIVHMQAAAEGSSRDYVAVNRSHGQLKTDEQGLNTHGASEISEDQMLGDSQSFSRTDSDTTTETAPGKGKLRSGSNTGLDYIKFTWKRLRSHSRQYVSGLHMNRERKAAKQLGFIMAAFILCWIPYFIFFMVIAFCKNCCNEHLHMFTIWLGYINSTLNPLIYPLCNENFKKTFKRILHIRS

Assays:
[1] = test system: IL-4 secretion from human CD4-positive T-cells stimulated with antiCD2/antiCD3/antiCD28-coated beads; conditions: assay description, known steroid, cited from earlier work
[2] = test system: CCL2 release from IL-4, IL-13, IL-22 and IFN-γ-stimulated primary human keratinocytes; conditions: assay description, known steroid, cited from earlier work
[3] = test system: IL-8 release from IL-17A and TNFα-induced primary human keratinocytes; conditions: assay description, known steroid, cited from earlier work
[4] = target: T1, Histamine H2 (Homo sapiens, UniProt P25021); assay: Histamine H2 radio ligand binding; conditions: 10 μM; assay year 2015
T1 construct: expressed in transfected cells; host or cells: CHO-K1 cells
Procedure: (§1) The in vitro pharmacological studies were conducted by Eurofins PanLab (Taiwan) using the parameters shown in Table 13 with respect to appropriate literature references.

[5] = target: T2, Lipoxygenase 12-LO (Homo sapiens, UniProt P18054); assay: Lipoxygenase 12-LO; assay type: biochemical; conditions: 10 μM; assay year 2015
T2 construct: Human platelets; from tissue; host or cells: human platelets
T2 sequence (P18054 1-663): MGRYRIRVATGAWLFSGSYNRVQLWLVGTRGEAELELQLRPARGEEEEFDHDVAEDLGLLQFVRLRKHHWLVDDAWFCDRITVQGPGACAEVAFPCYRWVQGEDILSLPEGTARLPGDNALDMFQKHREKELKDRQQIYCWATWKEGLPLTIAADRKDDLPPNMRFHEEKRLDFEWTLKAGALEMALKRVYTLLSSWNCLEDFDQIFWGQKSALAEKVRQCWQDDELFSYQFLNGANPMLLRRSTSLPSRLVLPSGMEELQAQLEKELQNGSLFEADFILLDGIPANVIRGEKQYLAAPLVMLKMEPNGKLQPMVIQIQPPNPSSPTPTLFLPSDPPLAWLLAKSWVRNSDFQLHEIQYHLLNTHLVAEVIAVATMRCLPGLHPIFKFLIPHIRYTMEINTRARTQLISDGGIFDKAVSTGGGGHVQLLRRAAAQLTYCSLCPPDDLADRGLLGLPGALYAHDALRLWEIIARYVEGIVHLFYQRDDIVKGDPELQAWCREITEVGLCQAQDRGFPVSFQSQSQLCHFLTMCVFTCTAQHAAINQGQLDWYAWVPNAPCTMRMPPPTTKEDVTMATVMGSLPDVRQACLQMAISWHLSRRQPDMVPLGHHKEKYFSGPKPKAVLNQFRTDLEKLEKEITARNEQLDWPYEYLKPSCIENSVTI
Procedure: as §1

[6] = target: PRMT6 (h) (Homo sapiens, UniProt Q96LA8); assay: Epigenetic enzyme assay, Methyltransferases (MTs); assay type: biochemical; conditions: 10 μM
[7] = target: T3, Histamine H1 (Homo sapiens, UniProt P35367); assay: Histamine H1 radio ligand binding; conditions: 10 μM; assay year 2015
T3 construct: expressed in transfected cells; host or cells: Chem-1 cells
Procedure: as §1

[8] = target: T4, PRMT4 (h) (Homo sapiens, UniProt Q86X55); assay: Epigenetic enzyme assay, Methyltransferases (MTs); assay type: biochemical; conditions: 10 μM
T4 sequence (Q86X55 1-608): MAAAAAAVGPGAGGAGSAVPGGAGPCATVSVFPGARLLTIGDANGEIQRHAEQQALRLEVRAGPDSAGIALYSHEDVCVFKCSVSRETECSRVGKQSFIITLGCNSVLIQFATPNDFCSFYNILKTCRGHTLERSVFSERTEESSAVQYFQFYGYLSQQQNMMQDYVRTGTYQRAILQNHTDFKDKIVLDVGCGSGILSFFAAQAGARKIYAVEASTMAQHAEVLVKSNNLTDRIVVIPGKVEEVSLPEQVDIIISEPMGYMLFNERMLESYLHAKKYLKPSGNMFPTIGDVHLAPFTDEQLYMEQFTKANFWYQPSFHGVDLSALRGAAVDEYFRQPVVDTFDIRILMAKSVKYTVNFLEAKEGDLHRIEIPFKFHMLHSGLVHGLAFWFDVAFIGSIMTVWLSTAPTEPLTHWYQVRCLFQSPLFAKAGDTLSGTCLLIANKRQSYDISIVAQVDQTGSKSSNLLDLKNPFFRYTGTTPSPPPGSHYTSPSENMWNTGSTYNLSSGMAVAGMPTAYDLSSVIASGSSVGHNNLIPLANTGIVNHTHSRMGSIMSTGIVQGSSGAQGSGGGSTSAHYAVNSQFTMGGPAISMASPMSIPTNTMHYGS

[9] = target: T5, 5-Lipoxygenase (Homo sapiens, UniProt P09917); assay: 5-Lipoxygenase; assay type: biochemical; conditions: 10 μM; assay year 2015
T5 construct: host or cells: Insect Sf9 cells
T5 sequence (P09917 1-674): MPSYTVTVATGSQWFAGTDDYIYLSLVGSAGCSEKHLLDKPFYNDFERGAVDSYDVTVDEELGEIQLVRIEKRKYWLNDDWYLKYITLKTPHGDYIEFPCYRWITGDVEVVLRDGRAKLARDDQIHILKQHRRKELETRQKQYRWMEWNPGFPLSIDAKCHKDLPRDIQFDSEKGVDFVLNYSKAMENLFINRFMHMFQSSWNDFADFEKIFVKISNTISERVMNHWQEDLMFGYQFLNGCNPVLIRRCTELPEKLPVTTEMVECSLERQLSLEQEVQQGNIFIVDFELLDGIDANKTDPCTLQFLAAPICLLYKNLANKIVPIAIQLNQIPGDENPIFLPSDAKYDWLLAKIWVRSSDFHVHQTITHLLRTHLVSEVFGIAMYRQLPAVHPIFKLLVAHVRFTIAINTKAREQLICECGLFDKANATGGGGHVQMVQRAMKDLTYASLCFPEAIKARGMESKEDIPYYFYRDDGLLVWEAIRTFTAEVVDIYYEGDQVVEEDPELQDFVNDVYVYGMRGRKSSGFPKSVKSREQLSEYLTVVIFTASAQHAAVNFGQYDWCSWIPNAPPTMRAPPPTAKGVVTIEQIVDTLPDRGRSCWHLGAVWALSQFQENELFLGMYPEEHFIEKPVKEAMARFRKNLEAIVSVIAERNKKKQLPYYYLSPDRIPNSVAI

[10] = target: T6, Nicotinamide N-methyltransferase (h) (Homo sapiens, UniProt P40261); assay: Epigenetic enzyme assay, Small molecule methyltransferases; assay type: biochemical; conditions: read-out: Reference IC50
T6 sequence (P40261 1-264): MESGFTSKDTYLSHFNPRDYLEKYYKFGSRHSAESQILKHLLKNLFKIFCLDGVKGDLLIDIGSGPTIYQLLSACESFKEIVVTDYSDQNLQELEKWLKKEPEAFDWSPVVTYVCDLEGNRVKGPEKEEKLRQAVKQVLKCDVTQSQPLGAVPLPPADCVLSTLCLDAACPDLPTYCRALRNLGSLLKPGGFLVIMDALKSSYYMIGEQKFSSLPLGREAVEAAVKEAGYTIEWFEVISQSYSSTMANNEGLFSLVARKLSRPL

[11] = target: T7, Guanidinoacetate N-methyltransferase (h) (Homo sapiens, UniProt Q14353); assay: as above; assay type: biochemical; conditions: read-out: Reference IC50
[12] = target: T8, Catechol O-methyltransferase (h) (Homo sapiens, UniProt P21964); conditions: read-out: Reference: IC50; cited from earlier work
T8 sequence (P21964 1-271): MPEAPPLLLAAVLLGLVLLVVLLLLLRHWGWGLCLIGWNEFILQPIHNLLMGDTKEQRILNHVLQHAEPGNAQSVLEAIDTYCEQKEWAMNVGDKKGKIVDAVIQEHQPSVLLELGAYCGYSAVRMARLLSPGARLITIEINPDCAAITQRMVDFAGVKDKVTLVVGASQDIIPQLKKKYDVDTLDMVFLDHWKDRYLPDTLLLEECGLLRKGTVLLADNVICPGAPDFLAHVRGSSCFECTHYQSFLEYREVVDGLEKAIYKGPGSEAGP

[13] = target: T9, Phenylethanolamine N-methyltransferase (h) (Homo sapiens, UniProt P11086); conditions: read-out: Reference: IC50; cited from earlier work
T9 sequence (P11086 1-282): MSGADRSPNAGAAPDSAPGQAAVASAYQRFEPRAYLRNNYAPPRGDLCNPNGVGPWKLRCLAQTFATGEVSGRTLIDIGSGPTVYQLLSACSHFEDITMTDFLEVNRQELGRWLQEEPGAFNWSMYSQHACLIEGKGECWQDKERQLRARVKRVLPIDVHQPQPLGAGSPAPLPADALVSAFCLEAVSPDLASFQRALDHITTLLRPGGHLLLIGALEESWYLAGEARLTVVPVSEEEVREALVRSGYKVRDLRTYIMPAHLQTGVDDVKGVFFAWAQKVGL

[14] = target: T9, Phenylethanolamine N-methyltransferase (h); assay: Epigenetic enzyme assay, Small molecule methyltransferases; assay type: biochemical; conditions: read-out: Reference IC50
[15] = target: T8, Catechol O-methyltransferase (h); assay: as above; assay type: biochemical; conditions: read-out: Reference IC50
[16] = target: T6, Nicotinamide N-methyltransferase (h); conditions: read-out: Reference: IC50; cited from earlier work
[17] = target: T10, Glycine N-methyltransferase (h) (Homo sapiens, UniProt Q14749); conditions: read-out: Reference: IC50; cited from earlier work
T10 sequence (Q14749 1-295): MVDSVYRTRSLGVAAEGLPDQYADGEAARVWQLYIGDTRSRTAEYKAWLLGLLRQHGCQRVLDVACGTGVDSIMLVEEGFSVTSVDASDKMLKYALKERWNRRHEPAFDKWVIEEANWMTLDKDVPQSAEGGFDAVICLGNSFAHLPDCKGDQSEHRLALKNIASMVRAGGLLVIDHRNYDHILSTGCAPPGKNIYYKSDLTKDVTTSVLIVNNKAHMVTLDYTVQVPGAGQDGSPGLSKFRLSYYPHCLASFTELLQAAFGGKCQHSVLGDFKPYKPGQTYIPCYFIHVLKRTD

[18] = target: T7, Guanidinoacetate N-methyltransferase (h); conditions: read-out: Reference: IC50; cited from earlier work
[19] = target: T10, Glycine N-methyltransferase (h); assay: Epigenetic enzyme assay, Small molecule methyltransferases; assay type: biochemical; conditions: read-out: Reference IC50
[20] = target: T11, Thiopurine S-methyltransferase (h) (Homo sapiens, UniProt P51580); conditions: read-out: Reference: IC50; cited from earlier work
T11 sequence (P51580 1-245): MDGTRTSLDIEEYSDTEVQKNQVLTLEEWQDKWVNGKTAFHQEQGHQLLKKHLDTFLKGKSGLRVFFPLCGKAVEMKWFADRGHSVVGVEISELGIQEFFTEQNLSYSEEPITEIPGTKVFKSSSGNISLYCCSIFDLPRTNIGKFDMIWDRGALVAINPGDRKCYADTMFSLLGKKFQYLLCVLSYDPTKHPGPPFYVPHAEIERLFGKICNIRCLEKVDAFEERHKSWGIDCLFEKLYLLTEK

[21] = target: T11, Thiopurine S-methyltransferase (h); assay: Epigenetic enzyme assay, Small molecule methyltransferases; assay type: biochemical; conditions: read-out: Reference IC50

SMILES	% Control Response [4]	% Control Response [5]	% Inhibition of Control Values [6]	% Control Response [7]	% Inhibition of Control Values [8]	% Control Response [9]	further results
C[C@H]1C[C@H]2[C@@H]3CCC4=CC(=O)C=C[C@]4(C)[C@@]3(F)[C@@H](O)C[C@]2(C)[C@@]1(O)C(=O)CO [Betamethasone]	–	–	–	–	–	–	Emax (plateau of the fitted curve), IL-4 release [1]: approximately 80%; EC50 ([1]; read-out: EC50, inhibition of IL-4 release): ~0.015 µM; Emax (plateau of the fitted curve), CCL2 release [2]: approximately 60%; EC50 ([2]; read-out: EC50, inhibition of CCL2 release): ~0.015 µM; Emax (plateau of the fitted curve), IL-8 release [3]: approximately 50%; EC50 ([3]; read-out: EC50, inhibition of IL-8 release): ~0.01 µM
CC(C)=CCC[C@H](CO)[C@@H]1CC[C@@H](C)c2c1cc(C)c(O)c2O [Compound 1, 7,8,18-trihydroxyserrulat-14-ene]	inhibit binding	moderately potent inhibitor	moderately inhibited	inhibit binding	strongly inhibited	potent to moderately potent inhibitor	–
[2H]C([2H])(SC[C@H]1O[C@@H](n2cnc3c(N)ncnc32)[C@H](O)[C@@H]1O)C([2H])([2H])[C@H](N)C(=O)O [SAH-d4, reference compound]	–	–	–	–	–	–	IC50 [10]: 13 µM; IC50 [11]: 2.3 µM; IC50 [12]: 14 µM; IC50 [13]: 13 µM; IC50 [14]: 3.9 µM; IC50 [15]: 14 µM; IC50 [16]: 13 µM; IC50 [17]: 17 µM; IC50 [18]: 2.3 µM; IC50 [19]: 17 µM; IC50 [20]: 2.3 µM; IC50 [21]: 2.3 µM
CC(C)=CCC[C@@H]1COc2c(C)cc(O)c3c2[C@H]1CC[C@H]3C [Compound 3, 5,18-epoxy-8-hydroxyserrulat-14-ene]	inhibit binding	moderately potent inhibitor	moderately inhibited	inhibit binding	strongly inhibited	potent to moderately potent inhibitor	–
CC(C)=CCC[C@@H]1C(O)Oc2c(C)cc(O)c3c2[C@H]1CC[C@H]3C (stereo partly drawn) [Compound 2, 5,18-epoxyserrulat-14-en-8,18-diol]	inhibit binding	moderately potent inhibitor	moderately inhibited	inhibit binding	strongly inhibited	potent to moderately potent inhibitor	–
